For part of these data: For expression read-outs the peptide stands for its source gene, whose mRNA was measured; the gene is not named for every peptide.
Tests used:
[1] = system: HLA molecules from shock-frozen tissue samples; assay: Identification and quantitation of tumor associated peptides presented on the cell surface (HLA immunoprecipitation, LC-MS); set-up: species or system human; conditions: cancer entities on which the peptide was detected by LC-MS of HLA ligands
[2] = system: source genes (mRNA) in tumor and normal tissue; assay: Expression profiling of genes encoding the peptides (RNAseq); set-up: species or system human; conditions: for Gene Expression in tumor samples: highly over-expressed (++): tumor entities in which the source gene is highly over-expressed vs panel of normal tissues (Table 9a); for Gene Expression in tumor samples: over-expressed (+): tumor entities in which the source gene is over-expressed vs panel of normal tissues (Table 9a)

Row | Substance | Peptide Presentation on cancer entities [1] | Gene Expression in tumor samples: highly over-expressed (++) [2] | Gene Expression in tumor samples: over-expressed (+) [2]
1 | 35: peptide found in NOTUM (gene looked up) (VLLLLSLLH; listed as Homo sapiens) [compound 35] | NSCLCadeno | HCC | GBC, SCLC, UEC
2 | 44: peptide found in MMP13 (gene looked up) (HAFPPGPNY; listed as Homo sapiens) [compound 44] | HNSCC | HNSCC, NSCLCsquam, OSCAR | NSCLCadeno, UBC
3 | 47: peptide found in QRFPR (gene looked up) (ALFGNALVFY; listed as Homo sapiens) [compound 47] | RCC | RCC | NSCLCsquam, OSCAR
4 | 69: peptide found in GPR143 (gene looked up) (GLSTILLYH; listed as Homo sapiens) [compound 69] | CCC, CRC, GBC, GBM, MEL, NSCLCadeno, NSCLCsquam, OSCAR, PACA, RCC, UEC | MEL | –
5 | 70: peptide found in GPR143 (gene looked up) (VTAVASLLK; listed as Homo sapiens) [compound 70] | MEL | MEL | –
6 | 74: peptide found in NCAPD3 (gene looked up) (HSTLVALFY; listed as Homo sapiens) [compound 74] | NHL | PRCA | –
7 | 76: peptide found in GPR143 (gene looked up) (IINESLLFY; listed as Homo sapiens) [compound 76] | BRCA, CRC, GBC, MEL, NSCLCadeno, RCC, UEC | MEL | –
8 | 79: peptide found in CXCR3 (gene looked up) (AVAAVLLSR; listed as Homo sapiens) [compound 79] | CCC, CLL, CRC, HNSCC, MEL, NHL, NSCLCadeno, NSCLCsquam, OSCAR, RCC, UEC | CLL | –
9 | 81: peptide found in APOB (gene looked up) (HLFLPFSYK; listed as Homo sapiens) [compound 81] | CCC, HCC | HCC | –
10 | 84: peptide found in ROS1 (gene looked up) (QLYSPPSPSYR; listed as Homo sapiens) [compound 84] | HNSCC, NSCLCadeno | – | NSCLCadeno, NSCLCother, NSCLCsquam
11 | 105: peptide found in CBX2 (gene looked up) (QVLDLQSVK; listed as Homo sapiens) [compound 105] | CRC | AML, BRCA, NSCLCother, NSCLCsquam, SCLC | CRC, GBC, GBM, HCC, HNSCC, MEL, NSCLCadeno, OC, OSCAR, UBC, UEC
12 | 107: peptide found in PLA2G2D (gene looked up) (ILNLNKMVK; listed as Homo sapiens) [compound 107] | NHL | NHL | MEL, NSCLCother
13 | 108: peptide found in PLA2G2D (gene looked up) (KMPILSYWPY; listed as Homo sapiens) [compound 108] | CRC | NHL | MEL, NSCLCother
14 | 111: peptide found in GPR143 (gene looked up) (ATSPPASVR; listed as Homo sapiens) [compound 111] | HNSCC | MEL | –
15 | 113: peptide found in FLT3 (gene looked up) (VSIRNTLLY; listed as Homo sapiens) [compound 113] | HCC | AML | –
16 | 115: peptide found in NMUR2 (gene looked up) (AILHPFRAK; listed as Homo sapiens) [compound 115] | UEC | – | PACA, UEC
17 | 119: peptide found in DNTT (gene looked up) (RMGFRTLSK; listed as Homo sapiens) [compound 119] | AML | AML | –
18 | 120: peptide found in DNTT (gene looked up) (TRMQKAGFLYY; listed as Homo sapiens) [compound 120] | NSCLCsquam | AML | –
19 | 122: peptide found in F5 (gene looked up) (LIGPLLICK; listed as Homo sapiens) [compound 122] | CCC, HCC, NSCLCadeno, RCC, UEC | HCC | CCC

Row | Substance | Peptide Presentation on cancer entities [1] | Gene Expression in tumor samples: highly over-expressed (++) [2] | Gene Expression in tumor samples: over-expressed (+) [2]
20 | 123: peptide found in PTPRZ1 (gene looked up) (SLQGLTISY; listed as Homo sapiens) [compound 123] | GBM | GBM | –
21 | 124: peptide found in PTPRZ1 (gene looked up) (VVYDTMIEK; listed as Homo sapiens) [compound 124] | GBM | GBM | –
22 | 125: peptide found in PTPRZ1 (gene looked up) (VVYDTMIEKF; listed as Homo sapiens) [compound 125] | HNSCC | GBM | –
23 | 129: peptide found in OXTR (gene looked up) (ALARVSSVKL; listed as Homo sapiens) [compound 129] | CRC | CCC | GBM, OC
24 | 134: peptide found in FERMT1 (gene looked up) (SLLKPSGDYFK; listed as Homo sapiens) [compound 134] | CRC | CRC | GC, HNSCC, NSCLCsquam, OSCAR, UBC
25 | 138: peptide found in CTLA4 (gene looked up) (VSLSKMLKK; listed as Homo sapiens) [compound 138] | NHL | CLL | NHL
26 | 145: peptide found in FLT3 (gene looked up) (SLFEGIYTIK; listed as Homo sapiens) [compound 145] | AML | AML | –
27 | 152: peptide found in SLC5A4 (gene looked up) (KIICGVHYLY; listed as Homo sapiens) [compound 152] | CRC | MEL | –
28 | 155: peptide found in APOB (gene looked up) (ALSHAVNNY; listed as Homo sapiens) [compound 155] | SCLC | HCC | –
29 | 157: peptide found in HSF2BP (gene looked up) (SLPLQRILAMSK; listed as Homo sapiens) [compound 157] | NSCLCadeno | GBC | BRCA, CCC, HNSCC, MEL, NSCLCadeno, NSCLCother, NSCLCsquam, OC, OSCAR, PACA, UBC
30 | 163: peptide found in GPR143 (gene looked up) (MLYYPSVSR; listed as Homo sapiens) [compound 163] | MEL | MEL | –
31 | 166: peptide found in ADAMTS12 (gene looked up) (KVIAPGVIY; listed as Homo sapiens) [compound 166] | CCC | CCC | BRCA, CRC, GBC, GC, HNSCC, NSCLCadeno, NSCLCother, NSCLCsquam, OSCAR, PACA, UBC
32 | 167: peptide found in PDE11A (gene looked up) (MLKQARRPLFR; listed as Homo sapiens) [compound 167] | NSCLCadeno | – | BRCA, HCC, HNSCC, PRCA, SCLC, UEC
33 | 171: peptide found in ABCB11 (gene looked up) (ATIGLSVSK; listed as Homo sapiens) [compound 171] | AML, HCC | HCC | –
34 | 173: peptide found in FERMT1 (gene looked up) (VSYNRLIK; listed as Homo sapiens) [compound 173] | GBC, HCC, HNSCC, MEL, PRCA, RCC, UEC | CRC | GC, HNSCC, OSCAR, UBC
35 | 178: peptide found in LPAR3 (gene looked up) (RIYVYVKRK; listed as Homo sapiens) [compound 178] | AML, HNSCC, OSCAR, UBC, UEC | – | HNSCC, OC, OSCAR, PRCA
36 | 182: peptide found in MET (gene looked up) (QICLPAIYK; listed as Homo sapiens) [compound 182] | CRC, GBC, NSCLCadeno, RCC | – | CCC, GBC, NSCLCadeno, RCC
37 | 184: peptide found in MPL (gene looked up) (KVLEPPLGAR; listed as Homo sapiens) [compound 184] | AML, CLL | – | AML
